Laboratory results from PubChem BioAssay AID2685 (National Center for Advancing Translational Sciences (NCATS), 2010).
The list shows a part of the results. Shown are side measurements of this screen, not its main read-out; they come without a call. Most of these compounds were active or inconclusive in the main read-out, so they are no random draw. Words in brackets tell the shape of the fitted curve; partial curves, single points and poor fits give uncertain potencies.

Assay: qHTS Assay for Lipid Storage Modulators in Drosophila S3 Cells;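 for cell number change: cells counted by Cell Tracker Red CMTPX staining in the red channel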
Details: BODIPY lipid droplet fluorescence, 18-24 h; for cell number change: measured here: cell count max response, cells fed with added oleic acid
In short: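 Drosophila S3 cells loaded with oleic acid (400 uM, as added) and compounds at several concentrations; lipid droplets imaged by 488-nm laser-scanning cytometry, 500–530 nm intensity and object ratio to cell channel. Percent activity normalized to 20 uM Triacsin C.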

[1] = measured here: lipid fluorescence (Fed channel) AC50, cells fed with added oleic acid
[2] = measured here: cell number channel AC50, cells fed with added oleic acid

Structure (SMILES)	cell number change [%]	AC50 [1]	AC50 [2]
Cc1cc(NC(=O)c2ccc(Br)o2)ccc1NC(=O)c1ccco1	6.09	29.1 µM [rising, single point]	–
COC(=O)CC1C(=O)NCCN1C(=O)Nc1cccc(Cl)c1 (stereo unspecified)	8.92	29.1 µM [rising, single point]	–
COCCn1c(SCC(=O)N2CCCC2)nnc1-c1ccoc1C	-46.4	4.61 µM [falling, full curve, poor fit]	16.4 µM [falling, single point]
O=C(COc1ccccc1Cl)Nc1ccc2c(c1)OCCO2	16.9	6.51 µM [falling, single point]	–
CCOc1ccccc1/C=N/NC(=O)CNC(=O)COc1ccccc1	29.5	32.6 µM [rising, single point]	–
Cc1ccc2c(c1)N(CC(=O)Nc1ncccc1C)C(=O)C(C(C)C)O2 (stereo unspecified)	–	0.259 µM [falling, full curve, poor fit]	–
O=C(CCc1ccccc1)NNC(=O)c1ccccc1Br	-52.8	–	0.00461 µM [falling, full curve, poor fit]
CC1Cc2ccccc2N1S(=O)(=O)c1cccc(C(=O)NNC(=O)c2ccccc2F)c1 (stereo unspecified)	-14.5	0.326 µM [rising, full curve, poor fit]	–
Cc1ccccc1C(=O)Nc1cc(C(F)(F)F)ccc1-n1cncn1	-51.9	20.6 µM [falling, single point]	29.1 µM [falling, single point]
C=C(C)CN=C1SC(C(=O)Nc2sc3c(c2C(=O)OC)CCC3)C(N)=C1C(N)=O (stereo unspecified)	-30.3	–	32.6 µM [falling, single point]
CC(C)N(C(=O)CSc1nn2c(=O)c(C(C)(C)C)nnc2s1)c1ccccc1	69.3	–	18.4 µM [rising, partial curve]
O=C(C1=C(O)/C(=C/c2ccc(O)cc2)CCC1)C(F)(F)F	-59.9	18.4 µM [falling, single point]	23.1 µM [falling, single point]
O=C(NN1CCOCC1)c1ccc(Cl)cc1[N+](=O)[O-]	44.6	6.51 µM [rising, partial curve]	8.2 µM [rising, partial curve]
O=C(CSc1nnc(COc2ccc(Cl)cc2)o1)OC1CCCCC1	-98.3	29.1 µM [falling, single point]	32.6 µM [falling, partial curve]
COc1ccc(CCNC(=O)CSc2ncnc3c2oc2ccccc23)cc1OC	0.149	0.651 µM [falling, full curve, poor fit]	–
COc1ccccc1C(=O)Nc1sc2c(c1C(=O)NCc1ccco1)CCCC2	–	–	0.13 µM [rising, full curve, poor fit]
Nc1c2c(nc3ccn(Cc4ccccc4)c(=O)c13)CCC2	33.9	4.11 µM [rising, single point]	20.6 µM [rising, single point]
Cc1cc(N2C(=O)C3CCC(c4ccccc4)CC3C2=O)no1 (stereo unspecified)	8.05	7.94 µM [rising, partial curve]	–
COC(=O)c1sc2ccccc2c1-n1cccc1C(=O)C(=O)Nc1ccc(OC)cc1	22.7	0.366 µM [rising, full curve]	–

Taken from above.
AC50 [1] with CC1Cc2ccccc2N1S(=O)(=O)c1cccc(C(=O)NNC(=O)c2ccccc2F)c1 (stereo unspecified) reads 0.326 µM [rising, full curve, poor fit]
AC50 [2] with O=C(C1=C(O)/C(=C/c2ccc(O)cc2)CCC1)C(F)(F)F reads 23.1 µM [falling, single point]

Further entries

Structure (SMILES)	cell number change [%]	AC50 [1]	AC50 [2]
CCOCCCN(C)C1CCN(C(=O)c2oc3ccccc3c2NC(=O)Cc2ccc(F)cc2)CC1	4.78	–	0.731 µM [rising, single point]
Cc1ccc(CNc2ccccc2C(=O)O)s1	-2.89	25.9 µM [rising, single point]	–
O=C(O)C1=C[C@H](c2csc3ccccc23)C[C@H](OCCCCO)O1	0.877	5.8 µM [rising, single point]	–
COc1ccc(-n2sc3c(c2=S)-c2cc(OC)ccc2NC3(C)C)cc1	-140	–	–
Cc1cc(OC(=O)c2ccc(F)cc2)c([N+](=O)[O-])c(=O)[nH]1	-16.5	–	–
Cc1ccc(Nc2c(-c3ccc(N4CCOCC4)cc3)nc3ncccn23)c(C)c1	-2.15	11.6 µM [rising, partial curve]	–
CCn1cc(CNC(=O)c2ccc(OC3CCN(Cc4ccccn4)CC3)cc2)cn1	–	29.1 µM [falling, single point]	–
Cc1cc(C)nc(SCc2ccc(C(=O)NNC(=O)Nc3cccc(Cl)c3)cc2)n1	–	29.1 µM [rising, single point]	0.731 µM [rising, single point]
CCC1CCCCN1CCCNC(=O)Cn1ncc2c(C)n(Cc3ccccc3Cl)c(C)c2c1=O (stereo unspecified)	8.65	–	–
N#Cc1nc(-c2ccc(OCc3ccc(Cl)cc3)cc2)oc1NCCCn1ccnc1	-5.7	–	–
CCC(Oc1ccccc1)C(=O)OCC(=O)Nc1sccc1C(N)=O (stereo unspecified)	30.9	14.6 µM [rising, partial curve]	18.4 µM [rising, single point]
COc1cccc2c1C(=O)c1ccc3ccccc3c1C2=O	105	3.66 µM [rising, full curve]	3.66 µM [rising, full curve]
CCc1nnc(NC(=O)c2oc3cc(C)c(C)cc3c2C)s1	9.89	2.31 µM [rising, single point]	–
O=C(Nc1ccccc1-c1nnn(CC(=O)N2CCN(c3ccccc3)CC2)n1)c1cccs1	7.78	1.64 µM [rising, partial curve]	–
Cc1ccc(N(C(=O)C(F)(F)F)C(C(=O)NC2CCCCC2)c2cccs2)cc1 (stereo unspecified)	24.4	29.1 µM [rising, single point]	–
COc1cc(C(=O)NCc2nnc(SCC(=O)N3CCCC3)o2)cc(OC)c1OC	-6.23	–	–
Cc1[nH]c(=O)cc2ccccc12	9.05	5.17 µM [falling, single point]	–
CCn1c(SCC(=O)Nc2nccs2)nnc1-c1ccccn1	-9.68	0.0058 µM [falling, full curve, poor fit]	–
COc1cc(NC(=O)CSc2nnc(Cn3nnc4ccccc43)n2C)cc(OC)c1	-25.8	18.4 µM [falling, single point]	–
